Data taken from ChEMBL document CHEMBL3988442, “University of Dundee, Small-Polar-MMV Screening Library” (2021).

Amino acid sequences for entries named in this document (tags omitted).
UniProt E9BF75, entry or part of it: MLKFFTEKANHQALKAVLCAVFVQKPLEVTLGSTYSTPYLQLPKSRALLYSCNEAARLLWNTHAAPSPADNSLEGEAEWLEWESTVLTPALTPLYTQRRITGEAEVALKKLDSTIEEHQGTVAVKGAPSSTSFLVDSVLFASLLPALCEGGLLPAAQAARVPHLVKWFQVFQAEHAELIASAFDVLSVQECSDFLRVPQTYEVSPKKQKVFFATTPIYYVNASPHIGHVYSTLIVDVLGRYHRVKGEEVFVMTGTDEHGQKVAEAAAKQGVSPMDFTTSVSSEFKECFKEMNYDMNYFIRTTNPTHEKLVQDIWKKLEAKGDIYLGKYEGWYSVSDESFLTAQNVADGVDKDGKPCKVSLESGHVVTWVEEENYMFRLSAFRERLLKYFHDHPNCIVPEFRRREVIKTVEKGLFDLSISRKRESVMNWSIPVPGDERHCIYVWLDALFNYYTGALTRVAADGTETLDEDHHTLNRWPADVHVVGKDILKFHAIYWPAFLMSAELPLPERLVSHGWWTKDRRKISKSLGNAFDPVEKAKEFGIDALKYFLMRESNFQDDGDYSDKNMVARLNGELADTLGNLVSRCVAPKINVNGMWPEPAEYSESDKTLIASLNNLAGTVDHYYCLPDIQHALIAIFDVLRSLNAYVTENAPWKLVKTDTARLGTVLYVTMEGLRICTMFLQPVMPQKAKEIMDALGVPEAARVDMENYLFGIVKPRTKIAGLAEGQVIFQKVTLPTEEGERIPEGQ

LdMetRS: 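Primary screen of methionyl-tRNA synthetase; the read-out is not stated. Target: Methionyl-tRNA synthetase (putative), Leishmania donovani (UniProt E9BF75). The test concentration is not given. The values are filed as inhibition. Of about 68,000 compounds tested this way, about 24 (0.035%) reached 50% or more in at least one test.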
Mtb heat-shock: 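Assay on Mycobacterium tuberculosis, filed only as a heat shock assay from Cornell; the read-out is not stated. The concentration is filed as 10 mM, unlikely as a test dose, so the dose is not known. The record gives no direction; compounds that gave an IC50 in retests scored well above the rest, so higher reads as stronger inhibition. About 69,000 compounds were tested under these conditions; 1.4% (about 930) showed 50% or more at least once.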

Results are percentages, as filed. The controls that fix the scale are not given in the record; negative values are as filed. This is an unselected part of the compounds tested. A dash means the value is not listed here; it may have been measured.

| compound | LdMetRS | Mtb heat-shock |
|---|---|---|
| `O=C(O)C(F)(F)F.O=C(O)c1cc(NS(=O)(=O)c2ccc(Cl)s2)ccc1N1CCOCC1` | - | -10.43% |
| `CN(C)Cc1cc(C2CCN(C(=O)C3CCCNC3)CC2)nn1C` (centres undefined) | 11.01% | - |
| `CCN(CC1CCCO1)C(=O)Nc1ccc(OC)c(C)c1` (centres undefined) | 17.78% | -9.89% |
| `Cc1c(C)n(Cc2ccccn2)c2nc3c(c(N)c12)CCCCCC3` | 9.394% | 12% |
| `COc1ccc(NC(=O)N(CC2CCOC2)C2CC2)cn1` (centres undefined) | 14.21% | 1.32% |
| `O=S(=O)(NC[C@H]1C[C@@H]2CCN1C[C@@H]2CN1CCCCC1)c1ccccc1` | 13.19% | - |
| `Cc1cc(-c2nc(-c3cccc(CN4CCOCC4)c3)no2)no1` | 4.57% | -33.01% |
| `Cn1cc(S(=O)(=O)Nc2c(F)cccc2N2CCCC2)cn1` | 22.29% | -14.16% |
| `CC(C)CC(C)NCc1cccnc1N1CCN(c2ccccn2)CC1` (centres undefined) | 9.317% | -5.772% |
| `CC(=O)N[C@@H]1CN(Cc2ccccc2C#N)C[C@H]1c1ccc(C)cc1` | 12.11% | 17.41% |
| `Cc1[nH]ccc1C(=O)N1CCCC(c2ccc(C(=O)O)cc2)C1` (centres undefined) | 21.05% | -6.41% |
| `O=C(Nc1ccccc1)c1ccc(NCc2nccs2)nn1` | 13.03% | 5.279% |
| `Cc1cnn(CC2CN(CC(=O)N(C)Cc3ccccc3)CCO2)c1` (centres undefined) | 14.74% | -31.74% |
| `COc1ncc(CN(CCCN2CCOCC2)Cc2ccc(C)o2)cn1.O=C(O)CC(O)(CC(=O)O)C(=O)O` | - | 3.503% |
| `Cc1noc(C2CN(Cc3ccc4c(c3)CCO4)C2)n1.O=C(O)C(=O)O` | - | 20.53% |
| `Oc1cccc(-c2cc(C3CCN(Cc4cncnc4)C3)ccn2)c1` (centres undefined) | 15.86% | 20.76% |
| `[H][C@@]12CCN(C(C)=O)C[C@]1(C(=O)NCc1ccco1)CCO2` | - | 5.669% |
| `Fc1ccc(CN2CCCn3nnc(COCC4CC4)c3C2)cc1.O=C(O)C(F)(F)F` | - | -8.501% |
| `Cc1ccc(C(=O)N2CCN(CCc3ccccc3)CC2)c(=O)[nH]1` | 22.19% | 2.905% |
| `Cn1c(CC(=O)O)c(Sc2ccccc2)c2ccccc21` | -6.971% | -20.18% |
| `NCCc1c(-c2ccc(F)cc2)[nH][nH]c1=O` | 2.286% | -8.958% |
| `CCS(=O)(=O)N1CCc2nnc(CN(C)C(C)C)n2CC1` | 1.038% | -17.97% |
| `CCC1(CC)CC(=O)N(CC(O)c2ccc(F)cc2)C1=O` (centres undefined) | 13.01% | -8.894% |
| `COCCC(=O)N1CCC2(CCN(Cc3cccc(F)c3)CC2)CC1.O=C(O)C(F)(F)F` | - | -6.657% |
| `COc1ncccc1CN1C[C@@H]2COC[C@]2(CNS(C)(=O)=O)C1` | 5.476% | - |
| `O=C(NC1CC1)N1CCc2ccc(=O)n(CC3CC3)c2CC1` | 15.57% | 1.953% |
| `O=C(CCn1cncn1)N1CCC2(CC1)[C@H](O)C[C@@H]2OCCO` | 13.17% | -3.742% |
| `COc1ccsc1C(=O)NCCN1CCOCC1` | 9.164% | -4.385% |
| `Cc1nnc(CN(C)C2CCN(CCc3cccs3)C2)n1C` (centres undefined) | 7.092% | -7.148% |
| `CC(CC(=O)N1CCCN(Cc2cscn2)CC1)n1cccc1` (centres undefined) | 12.14% | 11.94% |
| `O=C(NCc1ccc2c(c1)OCO2)[C@H]1C=CCN1c1ncccn1` | 6.824% | 11.56% |
| `O=C(O)C(F)(F)F.[H][C@@]12CN(Cc3cccs3)C[C@H](C(=O)NCCOC)[C@]1([H])CCO2` | - | -32.25% |
| `CC(C)COC(=O)N1CC(=O)N(CCc2ccccc2)CC(O)C1` (centres undefined) | 6.301% | 34.47% |
| `CCc1nc(CN2CCCN(C(=O)COC(C)C)CC2)cs1` | 3.655% | 12.21% |
| `COC[C@@]12CCO[C@@H]1CCN(Cc1ccccc1F)C2` | 10.5% | - |
| `O=C(Nc1ccncc1)NC1CCN(c2ccccc2OC(F)F)C1` (centres undefined) | 20.24% | -150.3% |
| `OCCc1ccccc1-n1ccnc1-c1cn(C2CCNCC2)nn1` | 14.38% | -50.09% |
| `CSc1ccc(-c2nc(CN3CCCC(CNC(C)=O)C3)c(C)o2)cc1` (centres undefined) | 4.7% | 15.89% |
| `Cc1cc(OCC(=O)N2CCCC(c3ccn[nH]3)C2)no1` (centres undefined) | 13.99% | 16.25% |
| `O=C1OCCC1N1CCN(C(=O)Cc2c[nH]c3ccccc23)CC1` (centres undefined) | 11.11% | 1.43% |
| `[H][C@@]12CO[C@@H](CNS(C)(=O)=O)[C@]1([H])CCN(c1cccc(C)n1)C2` | - | 0.9843% |
| `Cl.Cl.FC(F)(F)c1cccc(-c2c[nH]c(C3CCCN3)n2)c1` (centres undefined) | - | -17.05% |
| `CN(Cc1nnc2ccccn12)C(=O)CCC1CCCC1` | -1.003% | -18.85% |
| `O[C@H]1CCN(Cc2ccoc2)[C@H]1Cc1cccnc1` | 9.623% | - |
| `COC(=O)C(C)(C)NC(=O)C1CC(=O)N(C)C1` (centres undefined) | 15.5% | 11.44% |
| `Cc1nc(CN2CCCC2c2c(C)nn(C)c2Cl)no1` (centres undefined) | 14.17% | 6.707% |
| `COc1ccccc1CC(=O)N1CCC(OCc2cccnc2)CC1` | 15.6% | -13.77% |
| `O=C(O)C(F)(F)F.[H][C@@]12COC[C@]1([H])[C@H](NC(=O)C1CCC1)CN2Cc1ccccn1` | - | -14.35% |
| `CN1C(=O)CC2(CCNCC2)c2ccccc21` | 7.609% | -4.143% |
| `CNC(=O)c1ccc(S(=O)(=O)NCCc2ccccn2)cc1` | 16.03% | -8.04% |
| `Cc1csc(C(=O)N2CCC(S(C)(=O)=O)CC2)c1` | 7.627% | -11.59% |
| `Cc1cn2c(=O)c(-c3ccnc(N(C)C4CCCCC4)n3)cnc2s1` | 11.89% | -4.298% |
| `CNC(=O)[C@@]12CCO[C@@H]1CCN(S(=O)(=O)c1cccc(C)c1)C2` | 17.85% | - |
| `COc1ccccc1CNC(Cc1cccs1)c1nc(C)cs1.Cl` (centres undefined) | - | -1.831% |
| `CN1CC[C@H](c2nnc(Cc3c[nH]c4ccccc34)o2)C1` | 13.53% | -17.52% |
| `CCc1cc(N2CCSCC2)n2nc(C)c(C)c2n1` | 12.68% | 0.9081% |
| `COc1nc(N2CCNCC2)ncc1Br` | 11.56% | 5.959% |
| `CS(=O)(=O)C1CCN(S(=O)(=O)Cc2cccc(F)c2)CC1` | 1.863% | -13.47% |
| `COc1ccc(CNC(Cc2ccsc2)c2ncccc2C)cc1OC` (centres undefined) | 15.22% | 96.19% |
| `[H][C@@]12C[C@H](C)O[C@@]1([H])CCN(S(=O)(=O)c1ccc(F)cc1)C2` | - | -9.455% |
| `CCc1ocnc1C(=O)N1CCCC(n2nc(C)nc2C)C1` (centres undefined) | 13.68% | -22.05% |

For reference, 5 entries once more:

compound,LdMetRS,Mtb heat-shock
COc1ccc(NC(=O)N(CC2CCOC2)C2CC2)cn1 (centres undefined),14.21%,1.32%
CN(Cc1nnc2ccccn12)C(=O)CCC1CCCC1,-1.003%,-18.85%
CCS(=O)(=O)N1CCc2nnc(CN(C)C(C)C)n2CC1,1.038%,-17.97%
CC(C)CC(C)NCc1cccnc1N1CCN(c2ccccn2)CC1 (centres undefined),9.317%,-5.772%
OCCc1ccccc1-n1ccnc1-c1cn(C2CCNCC2)nn1,14.38%,-50.09%